# Results as given in the supplement of paper PMC9938546.
# Where a name gives a salt, the structure may show the parent alone. Some of the results follow. Part of the spread comes from offsets between plates or batches.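 HCT116-GFP, a KRAS-mutant, microsatellite-unstable human colorectal cancer line, constantly expresses green fluorescent protein; immune cells were from healthy donors. Cancer cell survival was tracked by live-cell imaging of green fluorescence, and activated immune cells by themselves reduced survival to roughly half.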
# Test system: HCT116-GFP
# Experiment: HCT116-GFP viability (GFP intensity) relative to untreated HCT116-GFP monoculture control, co-culture with activated PBMCs; higher = less cancer cell killing
# Details: culture: co-culture with anti-CD3/IL2 activated PBMCs 1:1; 10 µM; 72 h
row,SMILES,HCT116-GFP viability [%]
1,Clc1ccc(CSC(Cn2ccnc2)c2ccc(Cl)cc2Cl)cc1 (configuration not stated) [Sulconazole nitrate],45.4
2,C[C@]12CC[C@@H]3c4ccc(O)cc4CC[C@H]3[C@@H]1CC[C@@H]2O [Estradiol-17 beta],60.8
3,CCCN(CCC)S(=O)(=O)c1ccc(C(=O)O)cc1 [Probenecid],52.4
4,CN(C)CCOC(c1ccccc1)c1ccccc1 [Diphenhydramine hydrochloride],61.5
5,COc1ccc2[nH]c([S+]([O-])Cc3ncc(C)c(OC)c3C)nc2n1 (configuration not stated) [Tenatoprazole],49.6
6,CC(=O)[C@H]1CC[C@H]2[C@@H]3CCC4=CC(=O)CC[C@]4(C)[C@H]3CC[C@]12C [Progesterone],69.2
7,CN(C)CC/C=C1/c2ccccc2Sc2ccc(Cl)cc21 [Chlorprothixene hydrochloride],69.6
8,NC(Cc1cc(I)c(Oc2cc(I)c(O)c(I)c2)c(I)c1)C(=O)O (configuration not stated) [Thyroxine (L)],33.9
9,CC(=O)Oc1ccccc1C(=O)O [Acetylsalicylic acid],28
10,N=C(N)NS(=O)(=O)c1ccc(N)cc1 [Sulfaguanidine],37.9
11,CC1=C(/C=C/C(C)=C/C=C/C(C)=C/C(=O)O)C(C)(C)CCC1 [Retinoic acid],43
12,NC(=O)c1cc[n+](CC2=C(C(=O)[O-])N3C(=O)[C@@H](NC(=O)[C@@H](c4ccccc4)S(=O)(=O)O)[C@H]3SC2)cc1 [Cefsulodin sodium salt],75.3
13,CCc1c(C)[nH]c2c1C(=O)C(CN1CCOCC1)CC2 (configuration not stated) [Molindone hydrochloride],50.8
14,CCC1(c2ccccc2)NC(=O)N(C)C1=O (configuration not stated) [Mephenytoin],18.3
15,CC1(C)[C@H](C(=O)O)N2C(=O)C[C@H]2S1(=O)=O [Sulbactam],53.5
16,Cc1ncc(CO)c(CO)c1O [Pyridoxine hydrochloride],40.7
17,C#C[C@]1(OC(C)=O)CC[C@H]2[C@@H]3CCC4=CC(=NO)CC[C@@H]4[C@H]3CC[C@@]21CC (mixture of isomers) [Norgestimate],42.7
18,Clc1ccc(CO/N=C(\Cn2ccnc2)c2ccc(Cl)cc2Cl)c(Cl)c1 [Oxiconazole Nitrate],50.1
19,CC(=O)O[C@]1(C(C)=O)CC[C@H]2[C@@H]3C=C(Cl)C4=CC(=O)[C@@H]5C[C@@H]5[C@]4(C)[C@H]3CC[C@@]21C [Cyproterone acetate],35
20,N[C@@H]1CONC1=O [D-cycloserine],33.2
21,O=C(O)COCCN1CCN(C(c2ccccc2)c2ccc(Cl)cc2)CC1 (configuration not stated) [Cetirizine dihydrochloride],32.5
22,Clc1ccc(Cn2c(CN3CCCC3)nc3ccccc32)cc1 [Clemizole hydrochloride],56.9
23,COc1cc2nc(N(C)CCCNC(=O)C3CCCO3)nc(N)c2cc1OC (configuration not stated) [Alfuzosin hydrochloride],45.1
24,O=C(O)c1cn(C2CC2)c2cc(N3CCNCC3)c(F)cc2c1=O [Ciprofloxacin hydrochloride monohydrate],41.1

# Retrieved one by one from the list above (4):
row,SMILES,HCT116-GFP viability [%]
5,COc1ccc2[nH]c([S+]([O-])Cc3ncc(C)c(OC)c3C)nc2n1 (configuration not stated) [Tenatoprazole],49.6
21,O=C(O)COCCN1CCN(C(c2ccccc2)c2ccc(Cl)cc2)CC1 (configuration not stated) [Cetirizine dihydrochloride],32.5
22,Clc1ccc(Cn2c(CN3CCCC3)nc3ccccc32)cc1 [Clemizole hydrochloride],56.9
16,Cc1ncc(CO)c(CO)c1O [Pyridoxine hydrochloride],40.7

# Additional results:

row,SMILES,HCT116-GFP viability [%]
1,C#CCN[C@@H]1CCc2ccccc21 [Rasagiline],30
2,COc1ccc(-c2cc(=S)ss2)cc1 [Anethole-trithione],21.3
3,COc1cc(C(=O)NCc2ccc(OCCN(C)C)cc2)cc(OC)c1OC [Trimethobenzamide hydrochloride],38.7
4,C1CCC(C(CC2CCCCN2)C2CCCCC2)CC1 (configuration not stated) [Perhexiline maleate],1.55
5,CCc1nc(N)nc(N)c1-c1ccc(Cl)cc1 [Pyrimethamine],41.2
6,CC(=O)[C@@]1(O)CC[C@H]2[C@@H]3C[C@H](C)C4=CC(=O)C=C[C@]4(C)[C@@]3(F)[C@@H](O)C[C@@]21C [Fluorometholone],94.9
7,CC(C)NCC(O)COc1ccc(CCOCC2CC2)cc1 (configuration not stated) [Betaxolol hydrochloride],50.5
8,C[C@H]1c2cccc(O)c2C(=O)C2=C(O)[C@]3(O)C(=O)C(C(N)=O)=C(O)[C@@H](N(C)C)[C@@H]3[C@@H](O)[C@@H]21 [Doxycycline hydrochloride],36.4
9,CCCC1C(=O)N2C(N(C)C)=Nc3ccc(C)cc3N2C1=O (configuration not stated) [Azapropazone],21.7
10,Clc1ccc(C(Cn2ccnc2)OCc2ccsc2Cl)c(Cl)c1 (configuration not stated) [Tioconazole],34.4
11,"C[C@](N)(Cc1ccc(O)c(O)c1)C(=O)O [Methyldopa (L,-)]",55.7
12,c1cnc(N2CCN(Cc3ccc4c(c3)OCO4)CC2)nc1 [Piribedil hydrochloride],33.1
13,CCOC(=O)O[C@]1(C(=O)OCCl)CC[C@H]2[C@@H]3CCC4=CC(=O)C=C[C@]4(C)[C@H]3[C@@H](O)C[C@@]21C [Loteprednol etabonate],92.2
14,Cc1ccc(NC(=O)c2ccc(CN3CCN(C)CC3)cc2)cc1Nc1nccc(-c2cccnc2)n1 [Imatinib],56.4
15,CN[C@@H]1[C@H](O)[C@H](NC)[C@H]2O[C@@]3(O)C(=O)C[C@@H](C)O[C@H]3O[C@@H]2[C@H]1O [Spectinomycin dihydrochloride],70.6
16,NS(=O)(=O)c1cc2c(cc1Cl)NC(C(Cl)Cl)NS2(=O)=O (configuration not stated) [Trichlormethiazide],64
17,C#Cc1cccc(Nc2ncnc3cc(OCCOC)c(OCCOC)cc23)c1 [Erlotinib],15.4
18,Cc1onc(-c2ccccc2Cl)c1C(=O)N[C@@H]1C(=O)N2[C@@H]1SC(C)(C)[C@@H]2C(=O)O [Cloxacillin sodium salt],44.6
19,N[C@@H](C(=O)N[C@@H]1C(=O)N2C(C(=O)O)=C(Cl)CC[C@H]12)c1ccccc1 [Loracarbef],30.8
20,CC(C)Nc1cccnc1N1CCN(C(=O)c2cc3cc(NS(C)(=O)=O)ccc3[nH]2)CC1 [Delavirdine],45.8
21,CN[C@@H]1[C@@H](O[C@H]2O[C@H](CO)[C@@H](N)[C@H](O)[C@H]2O)OC2C[C@@H](N)[C@@H](O[C@H]3[C@H](O)[C@@H](O)[C@H](N)C[C@@H]3N)OC2[C@@H]1O (some centres not stated) [Apramycin],27.9
22,Cc1c(-c2ccccc2)oc2c(C(=O)OCCN3CCCCC3)cccc2c1=O [Flavoxate hydrochloride],46.2
23,CCOc1ccc2ccccc2c1C(=O)N[C@@H]1C(=O)N2[C@@H]1SC(C)(C)[C@@H]2C(=O)O [Nafcillin sodium salt monohydrate],81.1
24,CC(C)(CO)C(O)C(=O)NCCCO (configuration not stated) [Panthenol (D)],30.8

row,SMILES,HCT116-GFP viability [%]
1,CN(C)C/C=C(/c1ccc(Br)cc1)c1cccnc1 [Zimelidine dihydrochloride monohydrate],35.8
2,CCN(CC)CCNC(=O)c1cc(Cl)c(N)cc1OC [Metoclopramide monohydrochloride],35.2
3,Cn1cnc2c1c(=O)[nH]c(=O)n2C [Theobromine],75.7
4,CCC[C@@H]1C[C@@H](C(=O)N[C@@H]([C@H]2O[C@H](SC)[C@H](O)[C@@H](O)[C@H]2O)[C@H](C)Cl)N(C)C1 [Clindamycin hydrochloride],30.7
5,O=C(N[C@H](CO)[C@H](O)c1ccc([N+](=O)[O-])cc1)C(Cl)Cl [Chloramphenicol],53.4
6,Cc1ccc2c(c1)c1c3n2CCNC3CCC1 (configuration not stated) [Pirlindole mesylate],48
7,C=C1/C(=C\C=C2/CCC[C@]3(C)[C@@H]([C@H](C)CCCC(C)C)CC[C@@H]23)C[C@@H](O)C[C@@H]1O [Alfacalcidol],43.3
8,CC(C)[N+](C)(CCOC(=O)C1c2ccccc2Oc2ccccc21)C(C)C [Propantheline bromide],66.7
9,CN(C)CCC=C1c2ccccc2COc2ccccc21 [Doxepin hydrochloride],50.9
10,Nc1ccccc1S(N)(=O)=O [2-Aminobenzenesulfonamide],75
11,COc1ccccc1Oc1c(NS(=O)(=O)c2ccc(C(C)(C)C)cc2)nc(-c2ncccn2)nc1OCCO [Bosentan],38.4
12,COc1ccccc1OCC(O)CO (configuration not stated) [Guaifenesin],71.6
13,NC[C@@H]1O[C@H](O[C@H]2[C@@H](O)[C@H](O[C@@H]3[C@@H](O)[C@H](N)C[C@H](N)[C@H]3O[C@H]3O[C@H](CO)[C@@H](O)[C@H](O)[C@H]3N)O[C@@H]2CO)[C@H](N)[C@@H](O)[C@@H]1O [Paromomycin sulfate],85.1
14,Nc1nc(CC(=O)Nc2ccc(CCNC[C@H](O)c3ccccc3)cc2)cs1 [Mirabegron],69.6
15,CC(=O)[C@H]1CC[C@H]2[C@@H]3C=CC4=CC(=O)CC[C@@]4(C)[C@@H]3CC[C@]12C [Dydrogesterone],80
16,CN1[C@@H]2CC[C@H]1C[C@@H](OC(=O)c1c[nH]c3ccccc13)C2 [Tropisetron hydrochloride],69.2
17,Cc1cccc(C)c1OCC(C)N (configuration not stated) [Mexiletine hydrochloride],53.1
18,N#Cc1cc(NC(=O)C(=O)O)c(Cl)c(NC(=O)C(=O)O)c1 [Lodoxamide],39.6
19,COc1ccc(/C=C/C(=O)Nc2ccccc2C(=O)O)cc1OC [Tranilast],56.5
20,CCOC(=O)C1=C(COCCN)NC(C)=C(C(=O)OC)C1c1ccccc1Cl (configuration not stated) [Amlodipine],37.8
21,Cc1c(N(C)C)c(=O)n(-c2ccccc2)n1C [Amidopyrine],46.4
22,Oc1c(Cl)cc(Cl)c(Cl)c1Cc1c(O)c(Cl)cc(Cl)c1Cl [Hexachlorophene],18.4
23,Cc1cccc(C)c1NC(=O)C(C)N (configuration not stated) [Tocainide hydrochloride],37.3
24,CCCCc1cc2ccccc2c(OCCN(C)C)n1 [Dimethisoquin hydrochloride],99.4
